Results deposited as PubChem BioAssay AID1259254 (NCATS, 2017)
Aim: 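Gene knock-downs that lead to re-replication, shown by excess G2 DNA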 (primary screen). Cells: human HCT116 colorectal cancer cells. Knock-down reagent: single siRNA against human genes. Timing: 3 days. Detection: 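Nuclei stained with Hoechst and imaged; cell-cycle phase assigned by DNA content; G2 share scaled per plate, non-targeting siRNA 0%, GMNN siRNA 100%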. Scale: G2 robust z-score and G2 cells, % of GMNN control: higher = more G2 cells, more excess DNA replication. Rule for the call: 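An siRNA counts as active if its G2 robust z-score lies at least 5 MADs above the screen median; here such calls match roughly 38% of GMNN control or more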.
Shown is an unselected part of about 59,000 deposited reagents. Of all reagents, about 1,550 (2.6%) got an active call. 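G2 share is only a proxy for re-replication; each gene was hit by three separate siRNAs, and active genes were retested.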 Unmarked entries are inactive. The numbers tell different reagents against one gene apart. Not all columns of the deposit are shown. The record does not give: the amount of reagent.

no.	gene	siRNA no.	G2 robust z-score	G2 cells, % of GMNN control
1	PTCHD3P1 (patched domain containing 3 pseudogene 1)	1	-0.215	1.46
2	PTCHD3P1 (patched domain containing 3 pseudogene 1)	2	-0.952	-3.73
3	PTCHD3P1 (patched domain containing 3 pseudogene 1)	3	-0.93	-3.58
4	PPP1CC (protein phosphatase 1 catalytic subunit gamma)	1	4.03	31.3
5	PPP1CC (protein phosphatase 1 catalytic subunit gamma)	2	0.626	7.37
6	PPP1CC (protein phosphatase 1 catalytic subunit gamma)	3	0.859	9.01
7	FPGS (folylpolyglutamate synthase)	1	1.02	10.1
8	FPGS (folylpolyglutamate synthase)	2	-1.43	-7.08
9	FPGS (folylpolyglutamate synthase)	3	-1.1	-4.75
10	LATS2 (large tumor suppressor kinase 2)	1	2.51	20.6
11	LATS2 (large tumor suppressor kinase 2)	2	-0.238	1.3
12	LATS2 (large tumor suppressor kinase 2)	3	0.31	5.15
13	SYNE1 (spectrin repeat containing nuclear envelope protein 1)	1	2.77	22.5
14	SYNE1 (spectrin repeat containing nuclear envelope protein 1)	2	-0.802	-2.68
15	SYNE1 (spectrin repeat containing nuclear envelope protein 1)	3	3.4	26.9
16	SCN3B (sodium voltage-gated channel beta subunit 3)	1	5.88 (active)	44.4
17	SCN3B (sodium voltage-gated channel beta subunit 3)	2	2.58	21.2
18	SCN3B (sodium voltage-gated channel beta subunit 3)	3	-0.61	-1.32
19	ERF (ETS2 repressor factor)	1	0.9	9.3
20	ERF (ETS2 repressor factor)	2	-0.838	-2.93
21	ERF (ETS2 repressor factor)	3	-0.703	-1.98
22	SNAI1 (snail family transcriptional repressor 1)	1	0.659	7.6
23	SNAI1 (snail family transcriptional repressor 1)	2	-0.704	-1.98
24	SNAI1 (snail family transcriptional repressor 1)	3	1.02	10.2
25	RNF212 (ring finger protein 212)	1	-0.299	0.863
26	RNF212 (ring finger protein 212)	2	0.769	8.38
27	RNF212 (ring finger protein 212)	3	-0.785	-2.56
28	OSR2 (odd-skipped related transciption factor 2)	1	-0.802	-2.67
29	OSR2 (odd-skipped related transciption factor 2)	2	3.28	26
30	OSR2 (odd-skipped related transciption factor 2)	3	0.0391	3.24
31	HSF4 (heat shock transcription factor 4)	1	0.209	4.44
32	HSF4 (heat shock transcription factor 4)	2	0.794	8.56
33	HSF4 (heat shock transcription factor 4)	3	-0.697	-1.94
34	SCYL2 (SCY1 like pseudokinase 2)	1	0.233	4.61
35	SCYL2 (SCY1 like pseudokinase 2)	2	-0.579	-1.11
36	SCYL2 (SCY1 like pseudokinase 2)	3	-0.992	-4.01
37	SNX17 (sorting nexin 17)	1	0.78	8.45
38	SNX17 (sorting nexin 17)	2	0.212	4.46
39	SNX17 (sorting nexin 17)	3	-0.445	-0.166
40	DIPK2A (divergent protein kinase domain 2A)	1	-0.839	-2.93
41	DIPK2A (divergent protein kinase domain 2A)	2	4.45	34.3
42	DIPK2A (divergent protein kinase domain 2A)	3	0.153	4.04
43	DHRS7C (dehydrogenase/reductase 7C)	1	0.00354	2.99
44	DHRS7C (dehydrogenase/reductase 7C)	2	-0.446	-0.171
45	DHRS7C (dehydrogenase/reductase 7C)	3	-1.11	-4.83
46	WDFY3 (WD repeat and FYVE domain containing 3)	1	0.14	3.95
47	WDFY3 (WD repeat and FYVE domain containing 3)	2	0.248	4.71
48	WDFY3 (WD repeat and FYVE domain containing 3)	3	0.199	4.37

8 entries from above, sorted by “G2 robust z-score”, highest first:
gene	siRNA no.	G2 robust z-score	G2 cells, % of GMNN control
SCN3B (sodium voltage-gated channel beta subunit 3)	1	5.88 (active)	44.4
SYNE1 (spectrin repeat containing nuclear envelope protein 1)	3	3.4	26.9
SCN3B (sodium voltage-gated channel beta subunit 3)	2	2.58	21.2
ERF (ETS2 repressor factor)	1	0.9	9.3
SCN3B (sodium voltage-gated channel beta subunit 3)	3	-0.61	-1.32
ERF (ETS2 repressor factor)	3	-0.703	-1.98
SYNE1 (spectrin repeat containing nuclear envelope protein 1)	2	-0.802	-2.68
ERF (ETS2 repressor factor)	2	-0.838	-2.93
